Data reported in US20240207453A1, “13C METHACETIN GRANULE, AND PREPARATION METHOD THEREFOR AND USE THEREOF” (BEIJING RICHEN-FORCE SCIENCE & TECHNOLOGY CO., LTD, priority 2021, published 2024).
At least one read-out could not be matched to a standard name with certainty.

Experiment: comparison of water solubility
Type: physicochemical

For CC(=O)Nc1ccc(O[13CH3])cc1 [13C-methacetin, N-acetyl-p-anisidine (methoxy-13C)], the “Solubility: dissolution rate (in words)” value was “slow”.
